Test results taken from PubChem BioAssay AID248 (DTP/NCI, 2004).
The list does not hold the whole screen: it is rich in T/C values a quarter to a half above the control, in often repeated tests (any T/C) and in doses without a T/C. Other doses and runs of a compound stand elsewhere. T/C: endpoint of the treated group in % of that of the vehicle group. Some doses have a count of surviving animals in place of a T/C: the source files T/C as zero there, which appears to mark a toxic dose or a test without result, not a measured value. Some doses without a T/C left all or most animals alive at the check, yet need not have been tolerated: survival well below the control is almost never listed, so the zero probably covers shortened survival too. Survivors were counted at the toxicity check, usually on the fifth day, unless a day is given; later deaths do not show. Schedules are NCI's codes, taken here to give the interval after Q, in days (D) or hours (H), and the number of doses after X. Some molecules as drawn cover several salts, stereoisomers or complexes of the source; a dose is that of the sample tested. Some schedules carry Z or #; the key to these is not given. Some doses were run more than once; their values stand side by side, smallest first. For survival time, this PubChem deposit counts one and a half times the control or more as active, and values a quarter to a half above the control carry no call in these data; other NCI protocols may use other cut-offs.

Tested on: L1210 leukemia ip in BDF1 mice, survival T/C
Assay: NCI In Vivo Anticancer Drug Screen. Data for tumor model L1210 Leukemia (intraperitoneal) in B6D2F1 (BDF1) mice
Conditions: T/C endpoint: mean survival time, higher T/C = longer survival
[1] = dose: 100.0 mg/kg/injection, schedule: Q04DX003 (ip), vehicle: saline with Tween-80
[2] = dose: 200.0 mg/kg/injection, schedule: Q04DX003 (ip), vehicle: saline with Tween-80
[3] = dose: 400.0 mg/kg/injection, schedule: Q04DX003 (ip), vehicle: saline with Tween-80
[4] = dose: 400.0 mg/kg/injection, schedule: Q04DX003 (ip), vehicle: Klucel (hydroxypropylcellulose) (HPC)
[5] = dose: 200.0 mg/kg/injection, schedule: Q01DX001 (ip), vehicle: saline
[6] = dose: 400.0 mg/kg/injection, schedule: Q01DX001 (ip), vehicle: saline

For O=[N+]([O-])CC1CCCCC1O (stereo unspecified), the survivor count [1] was 0 of 6, the survivor count [2] was 0 of 6 and the survivor count [3] was 2 of 6.

O=[n+]1ccn2ccccc2c1 was tested, and the survivor count (dose: 200.0 mg/kg/injection, schedule: Q01DX009 (ip), vehicle: saline) was 1 of 6 and the survivor count [4] was 0 of 6.

In the case of NC(=O)C(NC(=O)Nc1ccccc1)C(N)=O, the survivor count (dose: 200.0 mg/kg/injection, schedule: Q04DX003 (ip), vehicle: gum acacia) is reported as 5 of 6 and the survivor count (dose: 400.0 mg/kg/injection, schedule: Q04DX003 (ip), vehicle: gum acacia) is reported as 2 of 6.

For Cc1ccc2nc(C)cc(NC(=O)c3ccccc3)c2c1, the survivor count (dose: 100.0 mg/kg/injection, schedule: Q01DX001 (ip), vehicle: saline) was 0 of 6, the survivor count [5] was 0 of 6 and the survivor count [6] was 0 of 6.

CC(=O)C1C=NC(C)(C)C(C)(C)N=CC(C(C)=O)C(C)=NCCCN=C1C.[Ni] (stereo unspecified) was tested, and the survivor count (dose: 50.0 mg/kg/injection, schedule: Q04DX002 (ip), vehicle: saline) was 2 of 3, the survivor count (dose: 100.0 mg/kg/injection, schedule: Q04DX002 (ip), vehicle: saline) was 0 of 3 and the survivor count (dose: 200.0 mg/kg/injection, schedule: Q04DX002 (ip), vehicle: saline) was 0 of 3. The survivor count (dose: 400.0 mg/kg/injection, schedule: Q04DX002 (ip), vehicle: saline) was 0 of 3.

For Cc1ccc(S(=O)(=O)OCC(CO)(COS(=O)(=O)c2ccc(C)cc2)[N+](=O)[O-])cc1, the survivor count [4] was 1 of 6.

With CN=C(Nc1ccccc1)SC the survivor count [5] was 2 of 6 and the survivor count [6] was 0 of 6.

Cc1n(-c2ccccc2)c2c([n+]1C)C(=O)c1ccccc1C2=O was tested, and the survivor count [1] was 0 of 6, the survivor count [2] was 0 of 6 and the survivor count [3] was 0 of 6.

CC(=O)Oc1ccc(N2C(=O)C=CC2=O)cc1 (tested in a mixture with another compound) was tested, and the survivor count (dose: 100.0 mg/kg/injection, schedule: Q04DX003 (ip), vehicle: other) was 6 of 6, the survivor count (dose: 200.0 mg/kg/injection, schedule: Q04DX003 (ip), vehicle: other) was 3 of 6 and 6 of 6 and the survivor count (dose: 400.0 mg/kg/injection, schedule: Q04DX003 (ip), vehicle: other) was 0 of 6.

Cc1cccc(CCSCCc2cccc(C)[n+]2[O-])[n+]1[O-] was tested, and the survivor count [6] was 2 of 6.

In the case of O=[N+]([O-])c1cc(/C=N/N=C2c3ccccc3-c3ccccc32)ccc1Cl, the survivor count (dose: 150.0 mg/kg/injection, schedule: Q01DX001 (ip), vehicle: other) is reported as 6 of 6.

CC(C)c1ccc(/C=N/N=C(N)N)cc1 was tested, and the survivor count (dose: 30.0 mg/kg/injection, schedule: Q01DX Z (ip), vehicle: other) was 0 of 6, the survivor count (dose: 62.5 mg/kg/injection, schedule: Q01DX Z (ip), vehicle: saline) was 0 of 6 and the survivor count (dose: 125.0 mg/kg/injection, schedule: Q01DX Z (ip), vehicle: saline) was 0 of 6. For the same compound, the survivor count (dose: 250.0 mg/kg/injection, schedule: Q01DX Z (ip), vehicle: saline) was 0 of 6 and the survivor count (dose: 500.0 mg/kg/injection, schedule: Q01DX Z (ip), vehicle: saline) was 0 of 6.

For CCCCCCCCCCCCCCCCCCNC(=O)c1c(Br)c(Br)cc(Br)c1C(=O)O, the T/C (dose: 100.0 mg/kg/injection, schedule: Q04DX002 (ip), vehicle: Klucel (hydroxypropylcellulose) (HPC)) was 131 % of control.

In the case of COc1cc(OC)cc(C(=O)N2CC2)c1, the survivor count (dose: 100.0 mg/kg/injection, schedule: Q01DX009 (ip), vehicle: water) is reported as 5 of 6, the survivor count (dose: 200.0 mg/kg/injection, schedule: Q01DX009 (ip), vehicle: water) is reported as 0 of 6 and the survivor count (dose: 400.0 mg/kg/injection, schedule: Q01DX009 (ip), vehicle: water) is reported as 0 of 6.

For COc1cc(/C=N/N)cc(OC)c1OC, the survivor count (dose: 200.0 mg/kg/injection, schedule: Q04DX002 (ip), vehicle: Klucel (hydroxypropylcellulose) (HPC)) was 0 of 3 and the survivor count (dose: 400.0 mg/kg/injection, schedule: Q04DX002 (ip), vehicle: Klucel (hydroxypropylcellulose) (HPC)) was 0 of 3.
